Experimental findings from PubChem BioAssay AID328 (DTP/NCI, 2004) are described below.

The list is a part of this screen's results and no random one: it is rich in T/C values a quarter to a half above the control, in often repeated tests (any T/C) and in doses without a T/C. Further doses and runs are listed elsewhere. T/C is the treated group as % of the vehicle group. Some doses have a count of surviving animals in place of a T/C: the source holds a T/C of zero for them, seemingly a mark for toxic or unscored doses. Some doses without a T/C left all or most animals alive at the check, yet need not have been tolerated: survival well below the control is almost never listed, so the zero probably covers shortened survival too. Survivors were counted at the toxicity check, usually on the fifth day, unless a day is given; later deaths do not show. Schedule codes are those of the source, read here as Q, the interval in days (D) or hours (H), X, the number of doses. For survival time, this PubChem deposit counts one and a half times the control or more as active, and values a quarter to a half above the control carry no call in these data; other NCI protocols may use other cut-offs. Some T/C values are followed by the survivors on the day toxicity was checked, most often the fifth; where none is given, no animal had died by that day. Some doses were run more than once; their values stand side by side, smallest first.

This assay relates to BDF1 mice, P388 leukemia ip, median survival T/C. In words: NCI In Vivo Anticancer Drug Screen. Data for tumor model P388 Leukemia (intraperitoneal) in B6D2F1 (BDF1) mice. To be noted: T/C endpoint: median survival time, higher T/C = longer survival. An outline of the steps:
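Vehicle-dosed animals serve as the reference; survival of compound-dosed, tumour-implanted mice is divided by it.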

Where [1] appears, read: dose: 400.0 mg/kg/injection, schedule: Q01DX009 (ip), vehicle: saline.
Where [2] appears, read: dose: 50.0 mg/kg/injection, schedule: Q01DX009 (ip), vehicle: saline with Tween-80.
Setting [3] is: dose: 100.0 mg/kg/injection, schedule: Q01DX009 (ip), vehicle: saline with Tween-80.
Setting [4] is: dose: 200.0 mg/kg/injection, schedule: Q01DX009 (ip), vehicle: saline with Tween-80.
[5] abbreviates: dose: 200.0 mg/kg/injection, schedule: Q04DX003 (ip), vehicle: saline with Tween-80.
The mark [6] stands for this setting: dose: 400.0 mg/kg/injection, schedule: Q01DX009 (ip), vehicle: saline with Tween-80.
Where [7] appears, read: dose: 400.0 mg/kg/injection, schedule: Q04DX003 (ip), vehicle: saline with Tween-80.
Where [8] appears, read: dose: 2.0 mg/kg/injection, schedule: Q01DX009 (ip), vehicle: saline with Tween-80.
Where [9] appears, read: dose: 16.5 mg/kg/injection, schedule: Q04DX003 (ip), vehicle: saline with Tween-80.

Take `COP1(=O)OCC2OC(n3cnc4c(N)ncnc43)C(O)C2O1` (stereo unspecified): the survivor count (dose: 200.0 mg/kg/injection, schedule: Q01DX009 (ip), vehicle: saline) was 6 of 6 and the survivor count under setting [1] is listed as 6 of 6.
On to `NC(c1ccccc1)C(N)c1ccccc1` (stereo unspecified), for which the survivor count is on record as 6 of 6 under setting [2]; 6 of 6 under setting [3]; 4 of 6 under setting [4]; 3 of 6 under setting [5]; 0 of 6 under setting [6]; 3 of 6 under setting [7].
As for `O=C1C[C@H]2[C@H](CO)[C@@H](OC(=O)c3ccc(-c4ccccc4)cc3)C[C@H]2O1`, under “dose: 115.0 mg/kg/injection, schedule: Q01DX009 (ip), vehicle: saline with Tween-80”, the survivor count was 0 of 6.
Turning to `CC12CCC(c3sc(N)c(C#N)c31)C2(C)C` (stereo unspecified), the T/C (dose: 6.25 mg/kg/injection, schedule: Q01DX009 (ip), vehicle: saline with Tween-80) was 129 % of control.
On to `CCOc1nc(N)c(C(N)=O)cc1C#N`, for which, under setting [3], the T/C was 125 % of control and the survivor count is on record as 6 of 6.
For `CCN1/C(=C/C=C/c2oc3ccccc3[n+]2CC)Oc2ccccc21`, the T/C by setting is: (dose: 0.15 mg/kg/injection, schedule: Q01DX009 (ip), vehicle: Klucel (hydroxypropylcellulose) (HPC)) 125 % of control [5 of 6 alive]; (dose: 0.25 mg/kg/injection, schedule: Q04DX003 (ip), vehicle: Klucel (hydroxypropylcellulose) (HPC)) 130 % of control; (dose: 0.3 mg/kg/injection, schedule: Q01DX009 (ip), vehicle: Klucel (hydroxypropylcellulose) (HPC)) 135 % of control; (dose: 0.5 mg/kg/injection, schedule: Q01DX010 (ip), vehicle: saline) 136 % of control; (dose: 0.5 mg/kg/injection, schedule: Q04DX003 (ip), vehicle: Klucel (hydroxypropylcellulose) (HPC)) 125 % of control; (dose: 0.6 mg/kg/injection, schedule: Q01DX009 (ip), vehicle: saline) 133 % of control. In addition, the T/C is, setting by setting: (dose: 1.0 mg/kg/injection, schedule: Q04DX003 (ip), vehicle: Klucel (hydroxypropylcellulose) (HPC)) 125 % of control [5 of 6 alive]; (dose: 1.2 mg/kg/injection, schedule: Q01DX009 (ip), vehicle: saline) 133 % of control; (dose: 300.0 micrograms/kg/injection, schedule: Q01DX009 (ip), vehicle: Klucel (hydroxypropylcellulose) (HPC)) 141 % of control. In addition, the survivor count (dose: 0.3 mg/kg/injection, schedule: Q01DX009 (ip), vehicle: saline) is given as 6 of 6; the survivor count (dose: 1.0 mg/kg/injection, schedule: Q01DX010 (ip), vehicle: saline) is 3 of 6; the survivor count (dose: 2.0 mg/kg/injection, schedule: Q04DX003 (ip), vehicle: Klucel (hydroxypropylcellulose) (HPC)) is given as 3 of 6.
Turning to `O=C(c1ccccc1)C(Cl)C(=O)c1ccccc1`, the survivor count (dose: 400.0 mg/kg/injection, schedule: Q01DX001 (ip), vehicle: saline with Tween-80) is 2 of 6.
Turning to `Cc1nc2c(=O)[nH]n(C)c2nc1C`, the survivor count under setting [6] is reported as 5 of 6.
Turning to `CCN1c2ccccc2CC(C#N)(CCN(C)C)c2ccccc21` (stereo unspecified), the survivor count under setting [4] was 3 of 6 and the survivor count under setting [6] is listed as 0 of 6.
On to `Clc1ccc2nc(CBr)cnc2c1`, for which the survivor count by setting is: under setting [3], 6 of 6; (dose: 100.0 mg/kg/injection, schedule: Q04DX003 (ip), vehicle: saline with Tween-80) 6 of 6; (dose: 120.0 mg/kg/injection, schedule: Q04DX003 (ip), vehicle: Klucel (hydroxypropylcellulose) (HPC)) 6 of 6; (dose: 180.0 mg/kg/injection, schedule: Q04DX003 (ip), vehicle: Klucel (hydroxypropylcellulose) (HPC)) 2 of 6; under setting [4], 0 of 6; (dose: 270.0 mg/kg/injection, schedule: Q04DX003 (ip), vehicle: Klucel (hydroxypropylcellulose) (HPC)) 4 of 6. The survivor count under setting [7] was 0 of 6.
On to `N=C(N)SCc1cccc([N+](=O)[O-])c1`, for which, for the setting “dose: 100.0 mg/kg/injection, schedule: Q01DX009 (ip), vehicle: Klucel (hydroxypropylcellulose) (HPC)”, the survivor count was 3 of 6.
Regarding `COc1cc([C@@H]2c3cc4c(cc3[C@H](O)[C@H]3COC(=O)[C@@H]23)OCO4)cc(OC)c1OC`, the T/C reads like this: (dose: 15.4 mg/kg/injection, schedule: Q01DX010 (ip), vehicle: carboxymethylcellulose (CMC)) 145 % of control; (dose: 100.0 mg/kg/injection, schedule: Q04DX003 (ip), vehicle: saline sonified) 140 % of control. The survivor count reads like this: (dose: 60.0 mg/kg/injection, schedule: Q01DX010 (ip), vehicle: carboxymethylcellulose (CMC)) 6 of 6; (dose: 120.0 mg/kg/injection, schedule: Q01DX010 (ip), vehicle: carboxymethylcellulose (CMC)) 5 of 6; (dose: 300.0 mg/kg/injection, schedule: Q04DX003 (ip), vehicle: saline sonified) 5 of 6.
With `O=C1C(N2CC2)=C(N2CCCC(O)C2)C(=O)C(N2CC2)=C1N1CCCC(O)C1` (stereo unspecified), the T/C was 148 % of control (dose: 0.25 mg/kg/injection, schedule: Q01DX009 (ip), vehicle: saline) and 131 % of control [5 of 6 alive] (dose: 0.5 mg/kg/injection, schedule: Q01DX009 (ip), vehicle: saline).
For the compound `O=C(Nc1ncn[nH]1)C(=O)Nc1ncn[nH]1`, under setting [2], the survivor count is 6 of 6.
Consider `[NH-]CC([NH-])=O.[NH-]CC([NH-])=O.[Ni]`, for which the survivor count reads like this: (dose: 20.0 mg/kg/injection, schedule: Q01DX009 (ip), vehicle: water) 3 of 6; (dose: 40.0 mg/kg/injection, schedule: Q01DX009 (ip), vehicle: water) 0 of 6; (dose: 50.0 mg/kg/injection, schedule: Q04DX003 (ip), vehicle: water) 3 of 6; (dose: 100.0 mg/kg/injection, schedule: Q04DX003 (ip), vehicle: water) 0 of 6.
`[N-]=[N+]=NC(=O)c1cccs1`: the survivor count (dose: 100.0 mg/kg/injection, schedule: Q01DX009 (ip), vehicle: saline + alcohol) was 3 of 6 and the survivor count (dose: 200.0 mg/kg/injection, schedule: Q01DX009 (ip), vehicle: saline + alcohol) was 0 of 6.
Consider `COC(=O)Nc1cccc(NC(=O)C(=O)O)c1`, for which the survivor count under setting [5] is recorded as 3 of 6.
Take `O=c1[nH]cc[nH]1`: the T/C was 140 % of control (dose: 264.0 mg/kg/injection, schedule: Q01DX009 (ip), vehicle: saline); 125 and 133 % of control [5 of 6 alive] under setting [1].
Take `CCCC#CCOCC1CO1` (stereo unspecified): under setting [6], the survivor count was 1 of 6.
Take `O=Cc1[nH]c(=S)[nH]c(=O)c1Cc1cccc(Cl)c1`: the T/C reads like this: under setting [4], 134 % of control; under setting [6], 138 % of control.
In the case of `Cc1nc(N)nc(N)c1-c1ccc(Cl)c(Cl)c1`, the survivor count by setting is: (dose: 1.3 mg/kg/injection, schedule: Q01DX009 (ip), vehicle: saline with Tween-80) 6 of 6; under setting [8], 6 of 6; (dose: 12.5 mg/kg/injection, schedule: Q01DX009 (ip), vehicle: saline with Tween-80) 6 of 6; under setting [9], 6 of 6; (dose: 25.0 mg/kg/injection, schedule: Q01DX009 (ip), vehicle: saline with Tween-80) 5 of 6; (dose: 37.5 mg/kg/injection, schedule: Q04DX003 (ip), vehicle: saline with Tween-80) 6 of 6. In addition, the T/C runs as follows: under setting [8], 140 % of control; (dose: 16.0 mg/kg/injection, schedule: Q02DX005 (ip), vehicle: Klucel (hydroxypropylcellulose) (HPC)) 132 % of control; under setting [9], 136 % of control; (dose: 25.0 mg/kg/injection, schedule: Q04DX003 (ip), vehicle: saline with Tween-80) 141 % of control.
